The nature of this data set: Redox activity, photometric surrogate assay (DTT/resazurin). To be noted: for Conversion (%) / Z-score: Redox activity. Background: Alamar Blue is a resazurin reagent that responds to reducing activity.

Structures are written as SMILES.

The source of these data is paper PMC10578927, “An unconventional gatekeeper mutation sensitizes inositol hexakisphosphate kinases to an allosteric inhibitor” (eLife, 2023).

For `O=C(O)c1ccc2c(c1)C(=O)N(c1ccc(-c3nc4ccc(N5C(=O)c6ccc(C(=O)O)cc6C5=O)cc4[nH]3)cc1)C2=O` [FMP-201300], the “Conversion (%)” value was -0.0816% and the Z-score is listed as -0.225. The redox-active result (resazurin/DTT surrogate assay) is listed as “neither redox-active”.

For the molecule `O=c1c(O)c(-c2ccc(O)c(O)c2)oc2cc(O)cc(O)c12` [compound 405356, quercetin, reference compound], the “Conversion (%)” value is on record as 0.0343% and the Z-score is reported as 0.674.
